PubChem BioAssay AID540256 (National Center for Advancing Translational Sciences (NCATS), 2011)
Among all 300,000 compounds or so, about 3,700 (1.2%) were called active. Inconclusive means that the source gave no clear call. Such entries were picked first, then a sample of the others. The call rests on the fitted dose curve; tested in HEK293 cells. Where the call is inconclusive, the potency comes from a doubtful curve fit.

test: qHTS for Inhibitors of binding or entry into cells for Lassa Virus; conditions: Lassa virus pseudotype entry inhibition, cell reporter; activity change, negative = inhibition: at 37.9 µM (top of the series) unless noted; further: nearly all actives have a fitted effect of over 50% in size
On the % scale 0 is the no-effect control and ±100 the full control effect; potency means the concentration at half of the fitted maximal effect.

| SMILES | Potency | activity change, negative = inhibition |
| --- | --- | --- |
| Cc1ccc(-n2nc(C)c(Sc3ccccc3[N+](=O)[O-])c2N)cc1 | inconclusive: 35.5 µM [inhibitor, partial curve, poor fit] |  |
| CCN(CC)CCCNC(=O)c1[nH]c2ccccc2c1Sc1ccc(Cl)cc1 | inconclusive: 35.5 µM [inhibitor, single point] |  |
| CCCN(Cc1nnc(-c2cccs2)o1)C(=O)c1cccc(S(=O)(=O)N2CCOCC2)c1 |  | inactive: 1.51% |
| COc1ccccc1CNC(=O)CN(Cc1ccc(Cl)cc1)S(C)(=O)=O | inconclusive: 20 µM [inhibitor, partial curve, poor fit] |  |
| COc1cc(Br)cc(CNc2ccc(F)c([N+](=O)[O-])c2)c1O | inconclusive: 35.5 µM [inhibitor, single point] |  |
| Cn1c(Oc2ccc(Cl)cc2)nc2c1c(=O)n(Cc1ccc(F)cc1)c(=O)n2C |  | inactive: 0.992% [at 46.1 µM] |
| O=C1C2C3C=CC(C3)C2C(=O)N1c1ccc(-c2nc3ccccc3o2)cc1 (stereo not drawn) | inconclusive: 4.47 µM [activator, partial curve, poor fit] |  |
| C=CCOc1ccc(-c2nc3c(c(=O)[nH]c(=O)n3Cc3ccccc3)n2CCCOC)cc1 | inconclusive: 0.794 µM [inhibitor, full curve, poor fit] |  |
| CCc1nnc(NC(=O)c2ncc(Cl)c(Cl)c2Cl)s1 |  | inactive: 16.6% |
| CCOc1ncccc1C(=O)NCc1ccc(OC)cc1 | inconclusive: 13 µM [inhibitor, partial curve, poor fit] |  |
| CCCCSc1nnc2c(n1)OC(C)N(C(C)=O)c1ccccc1-2 (stereo not drawn) |  | inactive: 4.74% [at 46.1 µM] |
| O=C(Nc1ccc(-c2nc3cc(NC(=O)c4cccs4)ccc3o2)cc1)c1cccs1 | active: 14.6 µM |  |
| O=C1C2C3C=CC(C4CC34)C2C(=O)N1/N=C/c1ccc(-c2ccccc2[N+](=O)[O-])o1 (stereo not drawn) | inconclusive: 10 µM [inhibitor, partial curve] |  |
| CC(=O)c1cccc(OCC(O)CN2CC=C(c3ccccc3)CC2)c1 (stereo not drawn) |  | inactive: -10% |
| CCCC(NCC(=O)Nc1cc(S(=O)(=O)N2CCOCC2)ccc1OC)c1ccccc1 (stereo not drawn) | inconclusive: 7.94 µM [inhibitor, partial curve] |  |
| O=C(NCc1ccco1)c1cnccn1 |  | inactive: 13.3% |
| CCCOc1ccc(C(=O)NCC(c2cccs2)N(C)C)cc1 (stereo not drawn) |  | inactive: -1.59% |
| COc1ccc(C(=O)Nc2cc(C(C)=O)c(/C=C/N(C)C)oc2=O)cc1 | inconclusive: 3.55 µM [activator, partial curve, poor fit] |  |
| Cc1ccc(OCCCSc2nc(-c3ccc(C(C)(C)C)cc3)nc3cc(=O)[nH]n23)cc1C |  | inactive: 22.5% [at 46.1 µM] |
| Nc1nc(-c2cc3ccccc3o2)cs1 | inconclusive: 29.1 µM [activator, partial curve, poor fit] |  |
| CCOc1ccccc1NC(=O)C1CCN(C(=O)NCc2ccccc2)CC1 | inconclusive: 17.8 µM [inhibitor, partial curve, poor fit] |  |
| Cc1c(Cl)cccc1-n1ncc(C(=O)N2CCOCC2)c1C1CCN(C(=O)OC(C)(C)C)CC1 |  | inactive: -24.2% [at 46.1 µM] |
| COc1ccc(C(C)=O)cc1CSCc1cc(C(C)=O)ccc1OC | inconclusive: 0.891 µM [inhibitor, single point] |  |

| SMILES | Potency | activity change, negative = inhibition |
| --- | --- | --- |
| c1ccc(C(CN2CCOCC2)c2ccccc2)cc1 |  | inactive: -1.52% |
| NS(=O)(=O)C#Cc1ccccc1 | active: 5.8 µM |  |
| O=[N+]([O-])c1cccc(/C=N/NC2=NCCCCC2)c1 | inconclusive: 6.51 µM [activator, partial curve, poor fit] |  |
| COc1ccccc1NS(=O)(=O)c1cc(C(=O)N2CCCCCC2)ccc1C | inconclusive: 11.2 µM [inhibitor, partial curve, poor fit] |  |
| Cc1nc2ccn(Cc3ccco3)c(=O)c2cc1C(=O)NCc1ccc(F)cc1 | inconclusive: 2.82 µM [inhibitor, partial curve, poor fit] |  |
| CCOC(=O)c1cccc(NS(=O)(=O)c2cc3c(cc2C)NC(=O)CO3)c1 |  | inactive: 0.231% [at 46.1 µM] |
| Cc1nc(N2CCCCC2)nc(N2CCCCC2)c1C=O | inconclusive: 6.31 µM [activator, partial curve, poor fit] |  |
| Cc1cc(C(c2nnnn2Cc2ccccc2)N2CCOCC2)c(C)n1-c1ccc2c(c1)OCO2 (stereo not drawn) | inconclusive: 2.91 µM [inhibitor, full curve] |  |
| Cc1ccc(Nc2ccc(N3CCN(C(=O)c4ccc([N+](=O)[O-])cc4)CC3)nn2)cc1 |  | inactive: 18% [at 46.1 µM] |
| Cc1ccc(S(=O)(=O)C(c2ccccc2)c2c(C)noc2C)cc1 (stereo not drawn) |  | inactive: 0.164% |
| Cc1ccc(S(=O)(=O)N2CCOCC2)cc1C(=O)N1CCC(Cc2ccccc2)CC1 | inconclusive: 17.8 µM [inhibitor, single point] |  |
| O=C(COC(=O)CCC(=O)c1ccc(F)cc1)Nc1cccc(S(=O)(=O)N2CCOCC2)c1 |  | inactive: 14.4% [at 46.1 µM] |
| Fc1ccc(/C=C/c2nnc(-c3cccs3)o2)cc1 |  | inactive: -29% [at 46.1 µM] |
| c1ccc(CN2CCC3(CCCc4ccccc43)CC2)cc1 | inconclusive: 25.9 µM [inhibitor, single point] |  |
| Cc1nn(C)cc1C(C(=O)NC1CCCCC1)N(C(=O)c1cnccn1)c1ccc(Oc2ccccc2)cc1 (stereo not drawn) | inconclusive: 5.17 µM [inhibitor, full curve] |  |
| O=C(c1sccc1-c1ccccc1)N1CCN(S(=O)(=O)c2ccccc2)CC1 | inconclusive: 35.5 µM [inhibitor, single point] |  |
| NC(=O)Nc1cc(Cl)ccc1Cl | inconclusive: 3.16 µM [inhibitor, single point] |  |
| COC(=O)c1cn(CC(=O)NC2CCCCC2)c2ccccc12 | inconclusive: 0.082 µM [inhibitor, full curve, poor fit] |  |
| COc1ccccc1-n1cnc2c(c1=O)c1nc3ccccc3nc1n2-c1ccc(C)cc1 |  | inactive: 8.68% |
| CCCCn1c(SCC(=O)c2ccc3c(c2)OCCO3)nnc1-c1ccco1 | inconclusive: 1.12 µM [inhibitor, full curve] |  |
| O=C(CN1CCCCC1)Nc1nnc(-c2ccc([N+](=O)[O-])cc2)s1 | inconclusive: 5.62 µM [activator, partial curve, poor fit] |  |
| CC(C)CC1Nc2ccc(C(=O)NCCCOC(C)C)cc2NC1=O (stereo not drawn) | inconclusive: 1.78 µM [inhibitor, partial curve, poor fit] |  |
| CCOC(=O)Cn1c(=O)n(-c2ccccc2OC)c2nc(-c3ccc(C(C)C)cc3)nc(C(N)=O)c21 | inconclusive: 0.794 µM [inhibitor, full curve, poor fit] |  |

Some of the entries above, set out differently:
SMILES	Potency	activity change, negative = inhibition
COc1ccc(C(=O)Nc2cc(C(C)=O)c(/C=C/N(C)C)oc2=O)cc1	inconclusive: 3.55 µM [activator, partial curve, poor fit]	
Cc1ccc(OCCCSc2nc(-c3ccc(C(C)(C)C)cc3)nc3cc(=O)[nH]n23)cc1C		inactive: 22.5% [at 46.1 µM]
Nc1nc(-c2cc3ccccc3o2)cs1	inconclusive: 29.1 µM [activator, partial curve, poor fit]	
CCOc1ccccc1NC(=O)C1CCN(C(=O)NCc2ccccc2)CC1	inconclusive: 17.8 µM [inhibitor, partial curve, poor fit]	
Cc1c(Cl)cccc1-n1ncc(C(=O)N2CCOCC2)c1C1CCN(C(=O)OC(C)(C)C)CC1		inactive: -24.2% [at 46.1 µM]

Further records.

| SMILES | Potency | activity change, negative = inhibition |
| --- | --- | --- |
| N#Cc1cccc(NC(=O)CCN2C(=O)C3CCCCC3C2=O)c1 (stereo not drawn) | inconclusive: 12.6 µM [activator, single point] |  |
| C=C(C)CSc1nnc(-c2cccc(S(=O)(=O)N(C)C)c2)n1-c1cc(OC)ccc1OC | inconclusive: 10 µM [inhibitor, partial curve] |  |
| CCN(CC)CCCNC(=O)c1ccc2c(Cl)c3c(nc2c1)CCCC3 | inconclusive: 35.5 µM [inhibitor, single point] |  |
| CCCc1ccc(Oc2cn[nH]c2-c2ccc(O)cc2O)cc1 | inconclusive: 16.4 µM [inhibitor, partial curve, poor fit] |  |
| COc1cc(/C=N/N2CCCCC2)cc([N+](=O)[O-])c1O |  | inactive: -5.69% [at 46.1 µM] |
| CC1CN(S(=O)(=O)c2ccc(C(=O)Nc3sccc3C(N)=O)cc2)CC(C)O1 (stereo not drawn) | inconclusive: 14.6 µM [inhibitor, single point] |  |
| ClCCN(CCCl)c1ccc(-n2cnc3c(Cl)ncnc32)cc1 | inconclusive: 11.2 µM [inhibitor, partial curve, poor fit] |  |
| Cc1nn2cc(-c3ccccc3)nc2s1 | inconclusive: 4.11 µM [activator, partial curve, poor fit] |  |
| CC1CCN(C(=O)c2cccc(NC(=O)c3nsc4ccccc34)c2)CC1 | inconclusive: 5.01 µM [activator, full curve, poor fit] |  |
| CC1(C)Cc2c(sc(NC(=O)c3ccco3)c2C(=O)O)CO1 | inconclusive: 16.4 µM [inhibitor, single point] |  |
| Cc1cc(C)n2cc(CSc3nnnn3-c3ccc(Cl)cc3)nc2n1 |  | inactive: 2.75% |
| CC(C)OCCCNC(=O)c1ccc(NS(C)(=O)=O)cc1 |  | inactive: 4.21% |
| O=C(CCNC(=O)c1ccccc1Cl)NCc1ccncc1 | inconclusive: 0.631 µM [activator, full curve, poor fit] |  |
| O=C(CCc1ccco1)CCc1ccco1 |  | inactive: -22.1% |
| CC(C)N(Cc1ccccc1)C(=O)/C=C/c1ccccc1[N+](=O)[O-] | inconclusive: 8.91 µM [inhibitor, partial curve, poor fit] |  |
| O=[N+]([O-])c1ccc(NC(=S)NCC(c2cccnc2)N2CCOCC2)cc1 (stereo not drawn) | inconclusive: 3.16 µM [inhibitor, partial curve, poor fit] |  |
| COc1ccc2cc(CN(Cc3cccnc3)Cc3nnnn3Cc3ccccc3)c(=O)[nH]c2c1 | inconclusive: 32.6 µM [inhibitor, partial curve, poor fit] |  |
| Cc1c(C(=O)NC(C)c2ccccc2)sc2nc3n(c(=O)c12)CCCC3 (stereo not drawn) |  | inactive: -11.9% [at 46.1 µM] |
| Cc1cccc(C(=O)OCC(=O)c2c(N)n(CC(C)C)c(=O)n(C)c2=O)c1[N+](=O)[O-] | inconclusive: 17.8 µM [inhibitor, single point] |  |
| COc1cccc(C(=O)Nc2cccc(C(=O)OCc3cc(=O)n4c(C)csc4n3)c2)c1 | inconclusive: 3.55 µM [activator, single point] |  |
| Cc1ccc(CS(=O)(=O)CCC(=O)NCCC2=CCCCC2)cc1 | inconclusive: 3.98 µM [inhibitor, single point] |  |
| COc1ccc(N2C(=O)CC(NNc3nc4ccccc4s3)C2=O)cc1 (stereo not drawn) |  | inactive: -8.78% [at 46.1 µM] |
